This is one part of the list. This is a noisy data set.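 Many melting curves are irregular; where none melted, Tm was taken as 64 °C.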
Compound: CCc1cnccc1C(=O)Nc1cc2c(cc1F)NC(=O)CC2
Assay: melting temperature shift (DMSO Tm minus MBE1-treated Tm) in cellular thermal proteome profiling; higher = less thermal stabilization by MBE1 (negative = stabilized by MBE1)
Settings: A375

Sequences of proteins named here, by UniProt entry; tags and fusion partners are left off. A change or cut given only in a name is not applied to a line headed by its entry.
UniProt P02545: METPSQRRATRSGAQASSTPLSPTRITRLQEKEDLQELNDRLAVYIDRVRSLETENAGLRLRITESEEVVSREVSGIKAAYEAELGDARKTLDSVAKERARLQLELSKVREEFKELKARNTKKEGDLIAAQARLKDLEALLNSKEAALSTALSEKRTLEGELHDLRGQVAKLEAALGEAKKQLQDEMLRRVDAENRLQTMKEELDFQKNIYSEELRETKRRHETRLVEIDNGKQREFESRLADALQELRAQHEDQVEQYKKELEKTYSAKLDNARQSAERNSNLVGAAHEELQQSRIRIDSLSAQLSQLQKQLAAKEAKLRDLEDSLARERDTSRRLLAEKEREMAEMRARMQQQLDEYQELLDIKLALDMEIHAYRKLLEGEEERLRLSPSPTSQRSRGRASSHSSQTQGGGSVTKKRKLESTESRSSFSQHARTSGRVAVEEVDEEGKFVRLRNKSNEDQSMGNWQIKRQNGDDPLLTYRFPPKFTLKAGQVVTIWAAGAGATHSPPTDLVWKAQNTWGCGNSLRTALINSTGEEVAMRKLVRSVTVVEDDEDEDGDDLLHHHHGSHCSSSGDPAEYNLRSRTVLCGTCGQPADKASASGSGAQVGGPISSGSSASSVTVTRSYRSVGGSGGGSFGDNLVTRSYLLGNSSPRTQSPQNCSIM
UniProt O77932: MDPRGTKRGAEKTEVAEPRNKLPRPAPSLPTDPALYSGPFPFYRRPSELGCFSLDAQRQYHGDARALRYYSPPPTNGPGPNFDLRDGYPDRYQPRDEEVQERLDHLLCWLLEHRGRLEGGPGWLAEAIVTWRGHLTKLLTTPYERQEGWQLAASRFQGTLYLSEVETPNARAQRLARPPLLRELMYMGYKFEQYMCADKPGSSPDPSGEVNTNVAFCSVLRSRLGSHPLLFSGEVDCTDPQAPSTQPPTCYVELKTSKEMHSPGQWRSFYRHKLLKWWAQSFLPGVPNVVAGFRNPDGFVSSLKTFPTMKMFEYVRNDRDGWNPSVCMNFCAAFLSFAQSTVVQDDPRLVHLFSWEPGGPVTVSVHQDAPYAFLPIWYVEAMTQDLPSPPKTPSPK
UniProt O94760: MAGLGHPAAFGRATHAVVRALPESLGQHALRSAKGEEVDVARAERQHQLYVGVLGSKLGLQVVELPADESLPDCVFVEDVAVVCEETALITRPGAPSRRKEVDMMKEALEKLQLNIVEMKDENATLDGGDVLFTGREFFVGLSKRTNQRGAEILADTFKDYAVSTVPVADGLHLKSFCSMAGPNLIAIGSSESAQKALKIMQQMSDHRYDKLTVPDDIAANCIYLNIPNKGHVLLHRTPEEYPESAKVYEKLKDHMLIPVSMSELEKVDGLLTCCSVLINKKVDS
UniProt O94761: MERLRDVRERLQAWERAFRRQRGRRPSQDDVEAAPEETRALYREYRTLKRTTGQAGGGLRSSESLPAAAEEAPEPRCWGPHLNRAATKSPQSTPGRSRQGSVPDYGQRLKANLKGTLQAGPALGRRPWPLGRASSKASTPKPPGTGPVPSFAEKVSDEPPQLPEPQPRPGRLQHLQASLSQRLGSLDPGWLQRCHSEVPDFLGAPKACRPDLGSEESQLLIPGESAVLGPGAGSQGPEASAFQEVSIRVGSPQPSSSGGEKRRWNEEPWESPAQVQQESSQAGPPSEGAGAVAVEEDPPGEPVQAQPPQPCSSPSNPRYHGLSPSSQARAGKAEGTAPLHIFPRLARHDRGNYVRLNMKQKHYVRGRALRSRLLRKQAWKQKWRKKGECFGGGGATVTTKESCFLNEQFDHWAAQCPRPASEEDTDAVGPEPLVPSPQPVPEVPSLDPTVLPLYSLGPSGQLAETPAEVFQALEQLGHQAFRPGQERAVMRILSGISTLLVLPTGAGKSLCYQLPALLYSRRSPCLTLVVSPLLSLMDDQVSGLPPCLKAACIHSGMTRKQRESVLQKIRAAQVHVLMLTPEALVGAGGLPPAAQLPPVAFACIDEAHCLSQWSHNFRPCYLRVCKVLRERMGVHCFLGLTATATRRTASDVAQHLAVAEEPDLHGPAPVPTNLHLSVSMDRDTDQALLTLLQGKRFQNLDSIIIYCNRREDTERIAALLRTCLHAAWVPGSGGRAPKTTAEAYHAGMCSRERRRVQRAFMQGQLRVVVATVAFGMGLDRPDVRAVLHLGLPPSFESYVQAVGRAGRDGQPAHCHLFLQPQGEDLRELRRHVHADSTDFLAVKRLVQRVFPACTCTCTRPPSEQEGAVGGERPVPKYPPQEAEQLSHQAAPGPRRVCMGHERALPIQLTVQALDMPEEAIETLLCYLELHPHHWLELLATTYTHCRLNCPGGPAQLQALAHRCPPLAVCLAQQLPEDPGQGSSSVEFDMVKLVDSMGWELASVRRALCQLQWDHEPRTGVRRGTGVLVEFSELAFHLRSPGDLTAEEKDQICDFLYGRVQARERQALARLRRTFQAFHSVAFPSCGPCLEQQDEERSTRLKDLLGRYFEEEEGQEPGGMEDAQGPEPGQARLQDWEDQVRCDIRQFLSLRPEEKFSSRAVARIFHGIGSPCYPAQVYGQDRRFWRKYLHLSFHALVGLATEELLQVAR
UniProt O95747, whole entry, looked up: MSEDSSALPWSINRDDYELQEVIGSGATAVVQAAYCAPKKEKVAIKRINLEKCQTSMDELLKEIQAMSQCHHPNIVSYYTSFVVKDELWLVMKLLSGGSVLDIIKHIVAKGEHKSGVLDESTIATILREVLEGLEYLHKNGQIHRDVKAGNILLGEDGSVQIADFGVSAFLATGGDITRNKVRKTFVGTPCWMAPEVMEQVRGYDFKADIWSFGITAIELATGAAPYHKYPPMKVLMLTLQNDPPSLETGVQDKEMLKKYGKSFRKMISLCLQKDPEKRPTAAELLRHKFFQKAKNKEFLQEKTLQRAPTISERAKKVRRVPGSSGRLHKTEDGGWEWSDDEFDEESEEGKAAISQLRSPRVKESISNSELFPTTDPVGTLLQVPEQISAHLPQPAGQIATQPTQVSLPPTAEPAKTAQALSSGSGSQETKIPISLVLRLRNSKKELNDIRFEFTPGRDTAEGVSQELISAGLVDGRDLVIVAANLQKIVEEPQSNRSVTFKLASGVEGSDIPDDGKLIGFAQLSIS
UniProt O95881: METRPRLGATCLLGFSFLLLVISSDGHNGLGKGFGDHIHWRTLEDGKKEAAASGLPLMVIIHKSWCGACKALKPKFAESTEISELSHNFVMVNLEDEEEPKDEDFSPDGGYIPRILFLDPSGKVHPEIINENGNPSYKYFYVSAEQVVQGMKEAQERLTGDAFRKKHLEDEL
UniProt P00387: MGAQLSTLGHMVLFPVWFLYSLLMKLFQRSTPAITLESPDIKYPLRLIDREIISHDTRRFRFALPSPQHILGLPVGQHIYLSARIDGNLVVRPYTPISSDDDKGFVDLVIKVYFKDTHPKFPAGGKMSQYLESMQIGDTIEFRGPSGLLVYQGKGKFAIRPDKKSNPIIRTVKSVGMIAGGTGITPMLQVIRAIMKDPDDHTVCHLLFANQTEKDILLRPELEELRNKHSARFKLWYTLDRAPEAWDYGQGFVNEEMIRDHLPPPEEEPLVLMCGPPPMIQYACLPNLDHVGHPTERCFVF
UniProt P06865: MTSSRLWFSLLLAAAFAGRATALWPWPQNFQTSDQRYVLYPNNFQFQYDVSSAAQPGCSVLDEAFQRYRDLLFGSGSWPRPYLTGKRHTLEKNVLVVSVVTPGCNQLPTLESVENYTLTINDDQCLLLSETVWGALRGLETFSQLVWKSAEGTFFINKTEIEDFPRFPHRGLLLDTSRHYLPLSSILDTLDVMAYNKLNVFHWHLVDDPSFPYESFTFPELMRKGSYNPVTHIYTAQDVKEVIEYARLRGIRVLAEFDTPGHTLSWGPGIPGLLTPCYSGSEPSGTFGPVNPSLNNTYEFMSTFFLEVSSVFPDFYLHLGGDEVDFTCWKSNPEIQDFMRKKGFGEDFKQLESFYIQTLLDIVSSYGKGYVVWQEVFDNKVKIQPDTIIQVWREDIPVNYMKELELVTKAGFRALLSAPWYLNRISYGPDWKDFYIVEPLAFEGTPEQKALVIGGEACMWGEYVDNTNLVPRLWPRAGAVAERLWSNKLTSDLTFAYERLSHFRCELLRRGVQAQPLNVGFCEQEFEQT
UniProt P00367: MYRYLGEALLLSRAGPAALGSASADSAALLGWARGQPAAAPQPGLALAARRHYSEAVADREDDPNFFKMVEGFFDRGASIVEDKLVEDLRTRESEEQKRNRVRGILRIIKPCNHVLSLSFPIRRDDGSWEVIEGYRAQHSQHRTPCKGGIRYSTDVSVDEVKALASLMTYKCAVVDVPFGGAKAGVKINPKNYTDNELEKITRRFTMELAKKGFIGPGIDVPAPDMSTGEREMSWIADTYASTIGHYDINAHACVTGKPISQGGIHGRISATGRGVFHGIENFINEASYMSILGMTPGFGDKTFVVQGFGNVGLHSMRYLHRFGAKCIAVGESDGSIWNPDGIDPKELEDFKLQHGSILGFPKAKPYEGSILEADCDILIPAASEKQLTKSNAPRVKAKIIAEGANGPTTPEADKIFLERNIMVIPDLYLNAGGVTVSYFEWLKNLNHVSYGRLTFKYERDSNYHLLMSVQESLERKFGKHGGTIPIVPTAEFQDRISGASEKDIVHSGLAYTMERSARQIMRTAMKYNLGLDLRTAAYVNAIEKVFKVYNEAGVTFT
UniProt O94762: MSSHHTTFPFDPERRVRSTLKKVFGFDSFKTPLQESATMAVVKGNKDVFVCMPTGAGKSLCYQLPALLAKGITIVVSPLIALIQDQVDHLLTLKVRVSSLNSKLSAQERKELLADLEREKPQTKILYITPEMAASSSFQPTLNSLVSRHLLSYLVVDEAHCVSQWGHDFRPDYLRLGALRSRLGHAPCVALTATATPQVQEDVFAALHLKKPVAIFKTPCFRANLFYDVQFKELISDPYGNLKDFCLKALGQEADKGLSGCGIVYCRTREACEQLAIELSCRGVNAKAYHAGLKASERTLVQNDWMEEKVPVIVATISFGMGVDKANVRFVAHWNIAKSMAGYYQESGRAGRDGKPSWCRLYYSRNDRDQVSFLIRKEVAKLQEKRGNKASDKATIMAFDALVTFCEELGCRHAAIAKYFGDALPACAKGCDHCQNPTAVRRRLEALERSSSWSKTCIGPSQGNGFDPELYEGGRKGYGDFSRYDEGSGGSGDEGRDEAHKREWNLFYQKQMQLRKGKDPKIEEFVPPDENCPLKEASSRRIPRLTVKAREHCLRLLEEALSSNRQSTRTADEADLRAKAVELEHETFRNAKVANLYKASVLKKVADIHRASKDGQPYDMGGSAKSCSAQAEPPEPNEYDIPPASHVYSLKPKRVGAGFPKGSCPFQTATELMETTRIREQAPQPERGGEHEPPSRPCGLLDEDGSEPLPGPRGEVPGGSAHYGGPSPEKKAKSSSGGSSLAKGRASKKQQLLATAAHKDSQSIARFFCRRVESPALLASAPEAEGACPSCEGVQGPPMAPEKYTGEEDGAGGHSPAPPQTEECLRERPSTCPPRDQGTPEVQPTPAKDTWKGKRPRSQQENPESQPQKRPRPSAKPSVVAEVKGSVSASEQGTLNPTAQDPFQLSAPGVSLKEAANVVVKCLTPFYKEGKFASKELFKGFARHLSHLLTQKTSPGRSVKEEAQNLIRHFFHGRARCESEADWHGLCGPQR
UniProt O94903: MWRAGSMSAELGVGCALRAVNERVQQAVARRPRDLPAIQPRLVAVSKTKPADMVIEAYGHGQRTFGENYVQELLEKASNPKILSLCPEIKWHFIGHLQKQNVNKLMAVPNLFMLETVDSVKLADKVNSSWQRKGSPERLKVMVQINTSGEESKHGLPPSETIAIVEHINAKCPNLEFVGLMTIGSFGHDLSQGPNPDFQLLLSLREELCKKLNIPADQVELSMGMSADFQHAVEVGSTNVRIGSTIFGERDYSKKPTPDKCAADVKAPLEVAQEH
UniProt O95292, whole entry: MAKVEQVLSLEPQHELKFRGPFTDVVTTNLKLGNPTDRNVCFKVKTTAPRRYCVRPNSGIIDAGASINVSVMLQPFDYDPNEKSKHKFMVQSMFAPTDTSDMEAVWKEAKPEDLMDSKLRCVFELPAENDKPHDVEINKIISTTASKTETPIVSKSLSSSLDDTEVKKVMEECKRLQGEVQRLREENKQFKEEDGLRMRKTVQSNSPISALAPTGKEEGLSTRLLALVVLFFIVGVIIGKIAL
UniProt O95149, whole entry: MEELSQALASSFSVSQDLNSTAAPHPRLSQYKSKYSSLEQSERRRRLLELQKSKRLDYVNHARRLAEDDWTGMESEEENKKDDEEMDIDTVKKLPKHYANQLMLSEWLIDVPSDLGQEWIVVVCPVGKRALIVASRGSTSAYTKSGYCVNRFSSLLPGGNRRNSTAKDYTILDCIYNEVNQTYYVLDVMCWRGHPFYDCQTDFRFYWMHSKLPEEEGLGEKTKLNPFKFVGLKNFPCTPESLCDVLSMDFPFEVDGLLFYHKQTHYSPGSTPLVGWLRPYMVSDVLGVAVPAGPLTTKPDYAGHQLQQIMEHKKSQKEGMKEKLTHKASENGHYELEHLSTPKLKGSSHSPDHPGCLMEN

| Target | melting temperature shift (MBE1 concentration: 100 nM) [°C] | melting temperature shift (MBE1 concentration: 1 uM) [°C] |
| --- | --- | --- |
| LMNA (UniProt P02545) | -0.516 | -0.463 |
| UniProt P04264 | 5.83 | 10.3 |
| TMEM63A (UniProt O94886) | -1.55 | -0.263 |
| UniProt O94901 | -0.0047 | -1.93 |
| DXO (UniProt O77932) | -0.177 | 1.5 |
| RPN2 (UniProt P04844) | -0.711 | 0.456 |
| STAM2 (UniProt O75886) | 0.281 | 0.0488 |
| UniProt P05412 | -0.617 | -0.122 |
| ZFPL1 (UniProt O95159) | -0.94 | -1.2 |
| DDAH1 (UniProt O94760) | -0.281 | 0.177 |
| MLYCD (UniProt O95822) | -0.879 | 0.825 |
| CSTB (UniProt P04080) | -0.0469 | -0.335 |
| UniProt O94761 | -0.47 | 1.8 |
| RAB3D (UniProt O95716) | -0.593 | 0.507 |
| WFS1 (UniProt O76024) | 0.543 | 0.867 |
| SMC2 (UniProt O95347) | 0.247 | -0.134 |
| SEC24B (UniProt O95487) | -0.488 | -0.443 |
| OXSR1 (UniProt O95747) | -0.0706 | -0.179 |
| PGK1 (UniProt P00558) | -0.409 | 0.463 |
| UniProt O94854 | -0.543 | -0.83 |

As a short view, part of the list above:

| Target | melting temperature shift (MBE1 concentration: 100 nM) [°C] | melting temperature shift (MBE1 concentration: 1 uM) [°C] |
| --- | --- | --- |
| SMC2 (UniProt O95347) | 0.247 | -0.134 |
| SEC24B (UniProt O95487) | -0.488 | -0.443 |
| OXSR1 (UniProt O95747) | -0.0706 | -0.179 |
| PGK1 (UniProt P00558) | -0.409 | 0.463 |
| UniProt O94854 | -0.543 | -0.83 |

(list continues)

| Target | melting temperature shift (MBE1 concentration: 100 nM) [°C] | melting temperature shift (MBE1 concentration: 1 uM) [°C] |
| --- | --- | --- |
| TXNDC12 (UniProt O95881) | -0.208 | -2.28 |
| ATP1B1 (UniProt P05026) | -0.747 | -1.7 |
| LDHA (UniProt P00338) | -1.83 | -1.81 |
| CYB5R3 (UniProt P00387) | -1.04 | -0.25 |
| ANXA1 (UniProt P04083) | 0.0977 | 0.0244 |
| EIF2S1 (UniProt P05198) | -0.416 | 0.557 |
| LDLR (UniProt P01130) | -5.96 | 0.511 |
| ATP5B (UniProt P06576) | -2.83 | -2.33 |
| CLSTN1 (UniProt O94985) | 3.24 | 3.32 |
| HEXA (UniProt P06865) | -1.83 | -0.785 |
| TNFAIP8 (UniProt O95379) | 0.0611 | 0.873 |
| RPN1 (UniProt P04843) | -0.355 | 0.0805 |
| UniProt P06858 | -0.476 | 1.3 |
| NDUFB10 (UniProt O96000) | -1.12 | -0.724 |
| GLUD1 (UniProt P00367) | -0.341 | -0.25 |
| AIFM1 (UniProt O95831) | -0.476 | -0.354 |
| HEXIM1 (UniProt O94992) | -6.18 | -3.36 |
| HSPB1 (UniProt P04792) | -1.39 | -0.752 |
| MOCS3 (UniProt O95396) | 0.454 | 0.2 |
| UniProt P04626 | 0.296 | -0.782 |

| Target | melting temperature shift (MBE1 concentration: 100 nM) [°C] | melting temperature shift (MBE1 concentration: 1 uM) [°C] |
| --- | --- | --- |
| PTBP3 (UniProt O95758) | -0.259 | -0.861 |
| IPO13 (UniProt O94829) | 1.09 | 0.397 |
| CPD (UniProt O75976) | -1.02 | -0.843 |
| PSMG1 (UniProt O95456) | -0.446 | 0.262 |
| RECQL5 (UniProt O94762) | -0.352 | -0.429 |
| ZBED1 (UniProt O96006) | -1.29 | -0.395 |
| UniProt O95382 | -1.04 | -0.826 |
| TACC2 (UniProt O95359) | -0.892 | 0.154 |
| UniProt P00750 | -1.02 | -0.501 |
| LATS1 (UniProt O95835) | -1.27 | 0.327 |
| UniProt P04350 | 0.531 | 1.94 |
| SMNDC1 (UniProt O75940) | -4.15 | -2.44 |
| GOSR1 (UniProt O95249) | -1.23 | -0.336 |
| ENDOD1 (UniProt O94919) | -2.2 | -0.726 |
| PROSC (UniProt O94903) | -0.047 | -0.586 |
| UniProt O76075 | 0.791 | 0.245 |
| VAPB (UniProt O95292) | -0.382 | -0.784 |
| PCF11 (UniProt O94913) | -0.0769 | -0.583 |
| PPP1R3D (UniProt O95685) | 1.37 | -0.598 |
| SNUPN (UniProt O95149) | 0.299 | 0.434 |
